Some results were stated once for a whole list of compounds, not compound by compound. At least one compound was matched to its structure with a doubt left.
System: colistin resistant MCR (+) E. Coli strains
Test: MIC, broth microdilution, compound alone
Format: cell-based
Details: range over the panel
Method: MIC experiments of the antimicrobial agents were determined by a modified broth microdilution method in accordance with the Clinical and Laboratory Standards Institute (CLSI) guidelines using 96 well culture plates. In brief, serial dilutions of all plates were prepared at different concentrations (μg). The inoculum suspension was prepared by adding isolated colonies from a 18-20 hours on TSA plate into phosphate buffer (0.31 mM, pH 7.2) or in water for injection (BBraun) and adjusting the suspension to a turbidity equivalent to 0.5 McFarland Standard. Each well contained a final bacterial concentration of approximately 5×10^5 colony forming units (CFU)/mL. The plate was covered and incubated at 35° C. for 24 hours. […] For the microdilution plates, turbidity in wells can be measured at OD600 using TECAN infinite M200Pro. MIC was determined as […] concentration that gives a 99 percent inhibition.

Row | SMILES | MIC when used alone
1 | CCOC(=O)C(CCCNC(=N)N)NC(=O)COc1ccc(/C=C/C(=O)c2ccc(OCC(=O)NC(CCCNC(=N)N)C(=O)OCC)c(CC=C(C)C)c2O)cc1 (centres unmarked) [LC137] | 12.5 to 25 µg/mL
2 | COC(=O)C(CCCNC(=N)N)NC(=O)COc1ccc(/C=C/C(=O)c2ccc(OCC(=O)NC(CCCNC(=N)N)C(=O)OC)c(CC=C(C)C)c2O)cc1 (centres unmarked) [LC101] | 12.5 to 25 µg/mL

— patent US12473250B2, “Molecular design of new antibiotics and antibiotic adjuvants against MCR strains” (priority 2019, dated 2025)
